{"source": "patent US10434132B2", "about": "“Galactolipids-enriched plant extracts and the uses thereof” (ACADEMIA SINICA, priority 2013, dated 2019)", "tested_on": "LPS/D-GaIN-challenged mice", "test": "LPS/D-GaIN-induced acute fulminant hepatitis in mice", "assay_type": "in vivo", "experimental": "The hepatoprotective effect in live body of compound dLGG isolated from Crassocephalum rabens (Asteraceae) in LPS/D-GaIN-induced fulminant hepatitis were investigated and compared with the hepatoprotective drug, silymarin (SM). Mice were randomly separated into four groups (n=6 per group) for treatments: vehicle; LPS/D-GaIN; 50 mg/kg of silymarin (Post-SM50); and 10 mg/kg dLGG (post-dLGG10), and all treatments were given intraperitoneally. One hour after the mice treated with 500 ng LPS and 250 μL saline containing 25 mg D-GaIN (Huang et al., 2012), the dLGG and silymarin were given intraperitoneally. Besides, the other two groups of mice were treated dLGG or silymarin continuously for three days to perform the protection effect of dLGG against LPS/D-GaIN induced fulminate hepatitis. Eight hours after LPS/D-GaIN injection, blood samples were collected through retro-orbital bleeding, and then all mice were sacrificed to collect blood samples and liver tissues.\nLiver, lung and kidney tissues were fixed in 10% buffered formalin then it were embedded into paraffin. The paraffin-embedded tissues were sliced (8-μm) and stained by hematoxylin and eosin (H&E). Besides, sections of paraffin-embedded liver and lung (4-μm for thickness) were heat immobilized and deparaffinized by use of xylene and rehydrated in a graded series of ethanol with a final wash in distilled water, and finally soaked into decloaking chamber (Biocare Medical) containing Target Retrieval Solution (DakoCytomation) for antigen retrieval.\nIn situ detection of apoptotic cells was conducted according to the manufacturer's protocol (Chemicon). It is using terminal deoxynucleotidyl transferase to work on nucleotide sequence to […] for terminal deoxynucleotidyl transferase-mediated dUTP nick end labeling. Finally, AxioVision software (Carl Zeiss MicroImaging, Inc.) was used to analyze the number of TUNEL-positive cells.\nBlood samples of tested mice were centrifuged under 4° C., 1400× g for 15 minutes to separate serum from blood. Commercial kit purchased from Randox Laboratories (UK) was used to determine the activity of aspartate aminotransferase (AST) and alanine aminotransferase (ALT) in serum supernatants.", "key": {"[1]": {"details": "FIG. 5A, dLGG 10 mg/kg or SM 50 mg/kg i.p. 1 hour after LPS/D-GaIN, blood at 8 hours"}}, "note": "For at least one compound, name, drawing or mass did not settle the structure."}
{"molecule": "COc1cc(C2Oc3cc([C@H]4Oc5cc(O)cc(O)c5C(=O)[C@@H]4O)ccc3OC2CO)ccc1O", "note": "(stereo partly shown) [SM, silymarin, reference compound]", "values": [{"measurement": "serum ALT levels", "setting": "FIG. 4A, given after LPS/D-GaIN challenge (Post-), two-fold increase of ALT in challenged mice vs control", "value": "effectively reduce"}, {"measurement": "serum ALT level", "setting": "[1]", "value": "significantly inhibit"}, {"measurement": "serum AST level", "setting": "[1]", "value": "significantly inhibit"}, {"measurement": "liver histology H&E (infiltration of inflammatory cells into liver lobules, tissue destruction, erythrocyte influx)", "setting": "FIG. 5B, dLGG 10 mg/kg or SM 50 mg/kg i.p. 1 hour after LPS/D-GaIN", "value": "attenuated"}]}
